Test results reported in paper PMC11518989.
These are yes or no findings as the source states them, for the method shown. Binding seen in cells or lysates may run through a third protein. Some entries that bind do so weakly or less than the wild type.

Sequences of proteins named here, by UniProt entry; tags and fusion partners are left off. A change or cut given only in a name is not applied to a line headed by its entry.
UniProt Q9H8M2: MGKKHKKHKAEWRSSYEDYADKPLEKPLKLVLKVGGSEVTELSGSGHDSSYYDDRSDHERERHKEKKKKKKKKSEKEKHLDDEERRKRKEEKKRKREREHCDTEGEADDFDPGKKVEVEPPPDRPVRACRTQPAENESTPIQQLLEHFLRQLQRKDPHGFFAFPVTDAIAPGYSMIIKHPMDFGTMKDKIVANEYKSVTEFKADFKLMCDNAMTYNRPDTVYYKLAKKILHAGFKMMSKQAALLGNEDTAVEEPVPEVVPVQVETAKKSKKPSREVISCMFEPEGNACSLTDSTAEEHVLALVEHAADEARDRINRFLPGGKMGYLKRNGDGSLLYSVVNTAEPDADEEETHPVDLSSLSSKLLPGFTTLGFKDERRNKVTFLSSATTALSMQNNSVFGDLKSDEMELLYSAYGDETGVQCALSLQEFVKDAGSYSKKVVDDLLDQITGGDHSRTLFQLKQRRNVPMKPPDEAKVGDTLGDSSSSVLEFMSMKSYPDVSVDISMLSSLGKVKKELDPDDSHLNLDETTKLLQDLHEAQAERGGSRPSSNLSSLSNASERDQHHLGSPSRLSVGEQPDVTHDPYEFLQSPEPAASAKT
UniProt Q9NZM4: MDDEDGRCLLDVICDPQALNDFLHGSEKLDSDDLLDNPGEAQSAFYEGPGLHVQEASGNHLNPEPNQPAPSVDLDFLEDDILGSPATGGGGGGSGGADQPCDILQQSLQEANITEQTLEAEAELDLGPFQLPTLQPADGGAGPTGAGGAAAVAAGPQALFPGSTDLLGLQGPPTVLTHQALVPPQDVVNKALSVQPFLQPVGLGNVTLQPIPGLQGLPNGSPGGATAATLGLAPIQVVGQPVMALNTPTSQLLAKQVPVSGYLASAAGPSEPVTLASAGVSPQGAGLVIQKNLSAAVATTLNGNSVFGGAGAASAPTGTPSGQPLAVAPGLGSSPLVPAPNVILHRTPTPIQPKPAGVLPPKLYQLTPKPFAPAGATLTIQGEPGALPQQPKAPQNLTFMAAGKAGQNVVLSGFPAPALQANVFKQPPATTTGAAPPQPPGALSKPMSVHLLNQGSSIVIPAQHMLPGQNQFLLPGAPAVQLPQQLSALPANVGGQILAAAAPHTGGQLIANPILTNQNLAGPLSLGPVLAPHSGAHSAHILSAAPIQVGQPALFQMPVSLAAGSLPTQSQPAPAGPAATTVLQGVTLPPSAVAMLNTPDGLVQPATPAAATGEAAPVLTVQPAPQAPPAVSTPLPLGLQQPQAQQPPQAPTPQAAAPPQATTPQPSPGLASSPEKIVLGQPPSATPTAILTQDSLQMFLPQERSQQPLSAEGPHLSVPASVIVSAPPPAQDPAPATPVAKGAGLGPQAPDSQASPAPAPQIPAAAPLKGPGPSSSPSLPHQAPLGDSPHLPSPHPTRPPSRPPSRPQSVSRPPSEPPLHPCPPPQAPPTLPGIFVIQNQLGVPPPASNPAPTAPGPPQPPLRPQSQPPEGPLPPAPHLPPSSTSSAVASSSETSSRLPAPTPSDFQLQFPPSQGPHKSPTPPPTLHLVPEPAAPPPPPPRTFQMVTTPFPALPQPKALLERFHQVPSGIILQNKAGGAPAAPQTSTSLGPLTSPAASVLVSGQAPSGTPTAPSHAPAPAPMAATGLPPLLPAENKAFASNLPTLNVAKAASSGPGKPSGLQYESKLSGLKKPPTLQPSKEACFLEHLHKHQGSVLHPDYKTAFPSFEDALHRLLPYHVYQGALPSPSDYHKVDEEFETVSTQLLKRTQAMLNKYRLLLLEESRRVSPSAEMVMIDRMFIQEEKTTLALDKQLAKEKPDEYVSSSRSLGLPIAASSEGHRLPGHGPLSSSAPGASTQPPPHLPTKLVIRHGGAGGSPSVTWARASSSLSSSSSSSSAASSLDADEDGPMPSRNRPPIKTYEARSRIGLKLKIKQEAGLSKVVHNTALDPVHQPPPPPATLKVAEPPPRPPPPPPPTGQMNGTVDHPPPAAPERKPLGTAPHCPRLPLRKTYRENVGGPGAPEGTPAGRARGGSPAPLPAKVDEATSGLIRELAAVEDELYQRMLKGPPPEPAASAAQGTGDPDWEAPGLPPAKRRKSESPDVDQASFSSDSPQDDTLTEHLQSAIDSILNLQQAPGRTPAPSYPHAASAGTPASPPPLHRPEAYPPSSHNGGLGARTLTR
UniProt P51532: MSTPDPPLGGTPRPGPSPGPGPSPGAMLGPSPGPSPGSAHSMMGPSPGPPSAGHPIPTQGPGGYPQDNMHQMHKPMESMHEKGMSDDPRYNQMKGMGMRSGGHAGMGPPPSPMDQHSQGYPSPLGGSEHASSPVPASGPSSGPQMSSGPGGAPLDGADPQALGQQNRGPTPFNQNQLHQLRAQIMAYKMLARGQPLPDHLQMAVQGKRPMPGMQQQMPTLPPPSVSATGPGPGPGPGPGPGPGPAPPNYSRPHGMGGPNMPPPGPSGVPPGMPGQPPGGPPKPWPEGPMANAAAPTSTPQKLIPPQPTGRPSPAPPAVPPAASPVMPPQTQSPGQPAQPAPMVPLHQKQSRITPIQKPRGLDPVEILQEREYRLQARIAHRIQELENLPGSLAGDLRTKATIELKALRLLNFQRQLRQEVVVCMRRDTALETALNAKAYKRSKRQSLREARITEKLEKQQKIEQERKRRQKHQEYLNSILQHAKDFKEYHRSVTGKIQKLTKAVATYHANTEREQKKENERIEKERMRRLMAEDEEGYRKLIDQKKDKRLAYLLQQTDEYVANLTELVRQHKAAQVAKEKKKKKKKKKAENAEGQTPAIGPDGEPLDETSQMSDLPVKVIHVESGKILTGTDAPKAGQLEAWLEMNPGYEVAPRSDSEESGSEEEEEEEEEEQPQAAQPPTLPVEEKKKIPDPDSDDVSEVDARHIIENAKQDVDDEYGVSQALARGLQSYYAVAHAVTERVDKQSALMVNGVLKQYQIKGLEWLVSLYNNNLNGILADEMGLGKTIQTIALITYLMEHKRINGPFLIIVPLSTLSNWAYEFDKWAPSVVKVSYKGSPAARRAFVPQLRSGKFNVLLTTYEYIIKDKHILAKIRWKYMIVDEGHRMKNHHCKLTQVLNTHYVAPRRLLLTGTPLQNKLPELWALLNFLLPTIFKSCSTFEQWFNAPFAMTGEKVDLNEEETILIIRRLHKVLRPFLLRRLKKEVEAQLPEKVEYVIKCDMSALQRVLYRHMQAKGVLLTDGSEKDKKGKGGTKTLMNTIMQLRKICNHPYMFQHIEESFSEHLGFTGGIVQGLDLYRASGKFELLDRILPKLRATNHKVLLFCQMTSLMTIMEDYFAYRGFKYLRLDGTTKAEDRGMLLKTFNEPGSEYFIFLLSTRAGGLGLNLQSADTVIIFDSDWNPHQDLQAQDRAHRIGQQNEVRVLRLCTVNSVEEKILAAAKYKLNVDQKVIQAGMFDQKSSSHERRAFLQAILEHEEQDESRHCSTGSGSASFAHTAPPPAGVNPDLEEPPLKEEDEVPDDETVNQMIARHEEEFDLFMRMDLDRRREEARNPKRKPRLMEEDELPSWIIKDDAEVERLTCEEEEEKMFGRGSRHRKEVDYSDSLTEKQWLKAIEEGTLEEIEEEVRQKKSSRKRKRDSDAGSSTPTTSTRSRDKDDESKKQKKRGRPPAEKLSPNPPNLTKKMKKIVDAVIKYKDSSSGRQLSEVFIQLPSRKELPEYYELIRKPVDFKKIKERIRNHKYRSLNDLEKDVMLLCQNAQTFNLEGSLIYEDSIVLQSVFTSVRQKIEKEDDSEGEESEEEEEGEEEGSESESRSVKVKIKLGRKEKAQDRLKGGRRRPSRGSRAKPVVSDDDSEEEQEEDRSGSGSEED
UniProt Q92922: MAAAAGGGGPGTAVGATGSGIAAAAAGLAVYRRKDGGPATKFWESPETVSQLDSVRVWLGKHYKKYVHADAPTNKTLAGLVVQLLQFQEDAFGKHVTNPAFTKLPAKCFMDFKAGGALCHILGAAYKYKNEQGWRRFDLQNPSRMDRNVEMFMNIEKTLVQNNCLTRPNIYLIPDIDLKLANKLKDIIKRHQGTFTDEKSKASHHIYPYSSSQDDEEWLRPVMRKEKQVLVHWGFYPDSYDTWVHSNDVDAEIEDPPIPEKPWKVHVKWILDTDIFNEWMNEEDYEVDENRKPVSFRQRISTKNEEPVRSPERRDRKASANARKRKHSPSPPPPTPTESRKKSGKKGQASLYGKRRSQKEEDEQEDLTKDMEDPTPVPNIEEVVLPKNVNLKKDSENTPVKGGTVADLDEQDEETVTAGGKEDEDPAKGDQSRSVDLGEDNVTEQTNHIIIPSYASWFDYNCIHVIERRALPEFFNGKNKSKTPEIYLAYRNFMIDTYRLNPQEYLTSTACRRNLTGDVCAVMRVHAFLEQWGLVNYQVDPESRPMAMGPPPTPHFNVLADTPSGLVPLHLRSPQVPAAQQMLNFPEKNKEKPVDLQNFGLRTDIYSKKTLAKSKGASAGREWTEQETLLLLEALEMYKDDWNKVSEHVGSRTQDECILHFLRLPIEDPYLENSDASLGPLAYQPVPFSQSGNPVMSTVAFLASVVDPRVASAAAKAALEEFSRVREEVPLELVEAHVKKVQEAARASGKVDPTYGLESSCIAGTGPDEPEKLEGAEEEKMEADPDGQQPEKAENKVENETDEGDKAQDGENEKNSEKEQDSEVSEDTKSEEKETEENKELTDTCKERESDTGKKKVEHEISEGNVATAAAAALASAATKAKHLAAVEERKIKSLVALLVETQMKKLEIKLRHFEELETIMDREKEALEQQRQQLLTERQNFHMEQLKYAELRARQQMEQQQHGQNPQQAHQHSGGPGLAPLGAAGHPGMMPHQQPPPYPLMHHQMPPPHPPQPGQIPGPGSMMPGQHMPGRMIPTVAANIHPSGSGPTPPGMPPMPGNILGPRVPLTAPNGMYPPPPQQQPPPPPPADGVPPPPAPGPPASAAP

What was measured:
[1] = biological target: regular BRD9 isoform (Bromodomain Containing 9), FLAG-V5-tagged (human (cDNA of the MEC1 CLL cell line and an SF3B1-mutated CLL case)) (UniProt Q9H8M2); assay: co-IP; V5-tag immunoprecipitation from HEK293T cell lines stably overexpressing the regular or alternative BRD9 isoform, western blot; control cells with empty lentiviral vector
[2] = biological target: BICRA (human (endogenous in HEK293T)) (UniProt Q9NZM4); assay: co-IP; reciprocal BICRA immunoprecipitation from HEK293T cell lines stably overexpressing the regular or alternative BRD9 isoform, western blot; control cells with empty lentiviral vector

| Substance | binding [1] | binding [2] |
| --- | --- | --- |
| BICRA (from UniProt Q9NZM4 1-1560) | binds | – |
| SMARCA4 (from UniProt P51532 1-1647) | binds | binds |
| SMARCC1 (from UniProt Q92922 1-1105) | binds | binds |
| regular BRD9 isoform (Bromodomain Containing 9), FLAG-V5-tagged (from UniProt Q9H8M2 1-597) | – | binds |
